From paper PMC9788671 come the findings set out here.

Protein sequences, listed by entry. Tags and fused reporters are not part of them.
UniProt Q9NZV8: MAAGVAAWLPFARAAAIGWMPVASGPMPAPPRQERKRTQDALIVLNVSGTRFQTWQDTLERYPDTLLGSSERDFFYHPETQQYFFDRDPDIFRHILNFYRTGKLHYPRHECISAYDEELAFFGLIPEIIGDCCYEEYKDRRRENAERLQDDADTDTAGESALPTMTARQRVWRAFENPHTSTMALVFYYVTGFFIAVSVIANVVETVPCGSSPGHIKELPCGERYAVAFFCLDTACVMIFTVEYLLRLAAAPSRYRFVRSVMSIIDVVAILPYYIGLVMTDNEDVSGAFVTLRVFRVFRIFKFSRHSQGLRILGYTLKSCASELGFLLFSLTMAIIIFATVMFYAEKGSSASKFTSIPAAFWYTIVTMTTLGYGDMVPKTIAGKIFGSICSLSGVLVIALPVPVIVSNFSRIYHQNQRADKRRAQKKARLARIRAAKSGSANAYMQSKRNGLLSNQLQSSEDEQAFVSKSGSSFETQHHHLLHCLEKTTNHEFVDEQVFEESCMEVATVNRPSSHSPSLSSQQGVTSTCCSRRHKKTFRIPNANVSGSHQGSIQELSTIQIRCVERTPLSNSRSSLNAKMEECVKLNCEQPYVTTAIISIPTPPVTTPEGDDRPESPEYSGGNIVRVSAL

B1: Ces1c (protein, UniProt P10959 19-549)
chain: HPSSPPVVDTTKGKVLGKYVSLEGFTQPVAVFLGVPFAKPPLGSLRFAPPEPAEPWSFVKNTTTYPPMCSQDGVVGKLLADMLSTGKESIPLEFSEDCLYLNIYSPADLTKNSRLPVMVWIHGGGLIIGGASPYSGLALSAHENVVVVTIQYRLGIWGLFSTGDEHSRGNWAHLDQLAALRWVQDNIANFGGNPDSVTIFGESAGGVSVSALVLSPLAKNLFHRAISESGVVLTTNLDKKNTQAVAQMIATLSGCNNTSSAAMVQCLRQKTEAELLELTVKLDNTSMSTVIDGVVLPKTPEEILTEKSFNTVPYIVGFNKQEFGWIIPTMMGNLLSEGRMNEKMASSFLKRFSPNLNISESVIPAIIEKYLRGTDDPAKKKELLLDMFSDVFFGIPAVLMSRSLRDAGAPTYMYEFQYRPSFVSDQRPQTVQGDHGDEIFSVFGTPFLKEGASEEETNLSKLVMKFWANFARNGNPNGEGLPHWPKYDQKEGYLQIGATTQQAQKLKGEEVAFWTELLAKNPPQTEHTEHT
B2: Tkt (protein, UniProt P50137 1-623)
chain: MEGYHKPDQQKLQALKDTANRLRISSIQATTAAGSGHPTSCCSAAEIMAVLFFHTMRYKALDPRNPHNDRFVLSKGHAAPILYAVWAEAGFLPEAELLNLRKISSDLDGHPVPKQAFTDVATGSLGQGLGAACGMAYTGKYFDKASYRVYCMLGDGEVSEGSVWEAMAFAGIYKLDNLVAIFDINRLGQSDPAPLQHQVDVYQKRCEAFGWHAIIVDGHSVEELCKAFGQAKHQPTAIIAKTFKGRGITGIEDKEAWHGKPLPKNMAEQIIQEIYSQVQSKKKILATPPQEDAPSVDIANIRMPTPPNYKVGDKIATRKAYGLALAKLGHASDRIIALDGDTKNSTFSELFKKEHPDRFIECYIAEQNMVSIAVGCATRDRTVPFCSTFAAFFTRAFDQIRMAAISESNINLCGSHCGVSIGEDGPSQMALEDLAMFRSVPMSTVFYPSDGVATEKAVELAANTKGICFIRTSRPENAIIYSNNEDFQVGQAKVVLKSKDDQVTVIGAGVTLHEALAAAEMLKKEKIGVRVLDPFTIKPLDKKLILDCARATKGRILTVEDHYYEGGIGEAVSAVVVGEPGVTVTRLAVSQVPRSGKPAELLKMFGIDKDAIVQAVKGLVTKG
B3: Gpd1l (protein, UniProt D3ZAP9 1-351)
chain: MAAAPLKVCIVGSGNWGSAVAKIIGSNVKNLQKFSSTVKMWVFEETVNGRKLTDIINNDHENVKYLPGHKLPENVVAVPNLGEAVQDADLLVFVIPHQFIHKICDEITGRVPKKAVGITLIKGIDEGPDGLKLISDIIREKMGIDISVLMGANIASEVAAEKFCETTIGSKVLQNGLLFKELLQTPNFRITVVDDADTVELCGALKNIVAVGAGFCDGLCCGDNTKAAVIRLGLMEMIAFAKIFCKGQVSTATFLESCGVADLITTCYGGRNRKVAEAFARTGKTIEELEKELLNGQKLQGPQTSAEVYRILKQKGLLDKFPLFTAVYQICYEGRPVTQMLSCLQSHPEHI
B4: Sccpdh (protein, UniProt Q6AY30 1-429)
chain: MATEQRPFQLVVFGASGFTGQFVTEEVAREQMASEQSSRLPWAVAGRSKEKLQQVLEKAAQKLGRATLSSEVGIIICDISNPASLDEMAKKATLVLNCVGPYRFYGEPVVKACIENGTSCIDICGEPQFLELMHVKYHEKAAEKGVYIIGSSGFDSIPADLGVLYTRNQMNGTLTAVESFLTINSGPEGLCIHDGTWKSAIYGFGDKGSLRKLRSVSNLKPVPVIGSKLKRRWPVSYCRELNSYAIPFLGSDMSVVKRTQRYLHENLEDSPVQYAAYITVGGITSVIKLMFAGLFFLFFVKFSIGRQLLVKFPWLFSFGYFSKRGPTQKQMDESSFTMTFFGQGYSHGVSAEKNKPNIRICTQVKGPEAGYVATPIAMVQAAVTFLNDASDLPKGGGVFTPGAAFSRTKLIDRLNQHGIQFSVISSSEV
B5: A1m (protein, UniProt Q63041 25-1500)
chain: ATGKPRYVVLVPSELYAGVPEKVCVHLNHLNETVTLNVTLEYGVQYSNLLIDQAVDKDSSYCSSFTISRPLSPSALIAVEIKGPTHHFIKKKSMWITKAESPVFVQTDKPIYKPGQTVKFRVVSVDISFRPVNETFPVVYIENPKRNRIFQWQNVDLPGGLHQLSFPLSVEPALGIYKVVVQKDSGKKIEHSFEVKEYVLPKFEVQVKMPKTMAFLEEELVVTACGLYTYGKPVPGLVTMKVCRKYTQSYSNCHGQHSKSICEEFSKQADEKGCFRQVVKTKVFQPRQKGYDMKIEVEAKIKEDGTGIELTGTGSCEIANTLSKLKFTKANTFYRPGLPFFGQVLLVDEKGQPIPNKNLTVQVNSVRSQFTFTTDEHGLANILIDTTNFTFSFMGIRVIYKQNNICFDNWWVDEYHTQADHSAARIFSPSRSYIQLELVLGTLACGQTQEIRIHFLLNEDALKDAKDLTFYYLIKARGSIFNSGSHVLPLEQGKVKGVVSFPIRVEPGMAPVAKLIVYTILPNEELIADVQKFDIEKCFANTVNLSFPSAQSLPASDTHLTVKATPLSLCALTAVDQSVLLLKPEAKLSPQSIYNLLPQKAEQGAYLGPLPYKGGENCIKAEDITHNGIVYTPKQDLNDNDAYSVFQSIGLKIFTNTRVHKPRYCPMYQAYPPLPYVGEPQALAMSAIPGAGYRSSNIRTSSMMMMGASEVAQEVEVRETVRKYFPETWIWDMVPLDLSGDGELPVKVPDTITEWKASAFCLSGTTGLGLSSTISHKVFQPFFLELTLPYSVVRGEAFILKATVLNYMPHCIRIHVSLEMSPDFLAVPVGSHEDSHCICGNERKTVSWAVTPKSLGEVNFTATAEALQSPELCGNKVAEVPALVQKDTVVKPVIVEPEGIEKEQTYNTLLCPQDAELQENWTLDLPANVVEGSARATQSVLGDILGSAMQNLQNLLQMPYGCGEQNMVLFVPNIYVLEYLNETQQLTEAIKSKAISYLISGYQRQLNYQHSDGSYSTFGDRGMRHSQGNTWLTAFVLKAFAQAQSYIYIEKTHITNAFNWLSMKQRENGCFQQSGSLLNNAMKGGVDDEVTLSAYITIALLEMPLPVTHSVVRNALFCLETAWASISNSQESHVYTKALLAYAFALAGNRAKRSEVLESLNKDAVNEEESVHWQRPKNVEENVREMRSFSYKPRAPSAEVEMTAYVLLAYLTSASSRPTRDLSSSDLTTASKIVKWISKQQNSHGGFSSTQDTVVALQALSKYGAATFTKSNKEVSVTIESSGTVSGTLHVNNGNRLLLQEVRLADLPGNYITKVSGSGCVYLQTSLKYNILPEAEGEAPFTLKVNTLPLNFDKAEHHRKFQIHINVSYIGERPNSNMVIVDVKMVSGFIPVKPSVKKLQDQSNIQRTEVNTNHVLIYIEKLTNQTMGFSFAVEQDIPVKNLKPAPVKVYDYYETDEFAIEEYSAPFSSDSEQGNA
B6: Prdx1 (protein, UniProt Q63716 1-199)
chain: MSSGNAKIGHPAPSFKATAVMPDGQFKDISLSDYKGKYVVFFFYPLDFTFVCPTEIIAFSDRAEEFKKLNCQVIGASVDSHFCHLAWINTPKKQGGLGPMNIPLVSDPKRTIAQDYGVLKADEGISFRGLFIIDDKGILRQITINDLPVGRSVDEILRLVQAFQFTDKHGEVCPAGWKPGSDTIKPDVNKSKEYFSKQK
B7: Vat1 (protein, UniProt Q3MIE4 1-404)
chain: MSAEREATEAATVAAAAEARAETGAGEGAPSQPPTVEVASDPQPPPAPEASASASAPPLRCLVLTGFGGYDKVKLQSRPAVPPAPGPGQVTLRVRACGLNFADLMGRQGLYDRLPPLPVTPGMEGAGVVVAVGEGVSDRKAGDRVMVLNRSGMWQEEVTVPSAQTFLMPEAMTFEEAAALLVNYITAYMVLFDFGNLRPGHSVLVHMAAGGVGMAALQLCRTVENVTVFGTASASKHEVLKENGVTHPIDYHTTDYVDEIKKISPKGVDIVMDPLGGSDTAKGYHLLKPMGKVVTYGMANLLTGPKRNLMAMARTWWNQFSVTALQLLQANRAVCGFHLGYLDGEVELVSRVVTHLLALYNQGHIKPRIDSVWPFEKVADAMRQMQEKKNIGKVLLVPGPEKET
B8: Gdap1 (protein, UniProt D4A5X7 1-422)
chain: MTSQGPLPTRQHSFLGVKLHLPEASSSAKHVLYATGGPAKPKDGSKPLQQAGQPTRLAESLHPAMARKQDEARSGVPLRAQGPPAAEVRLILYHWTHSFSSQKVRLVIAEKALKCEEHDVSLPLSEHNEPWFMRLNSTGEVPVLIHGENIICEATQIIDYLEQTFLDERTPRLMPDEGSMYYPRVQHYRELLDSLPMDAYTHGCILHPELTVDSMIPAYATTRIRGQIGNTESELKKLAEENPDLQEAYIAKQKRLKSKLLDHDNVKYLKKILDELEKVLDQVETELQRRNEETPDEGNQPWLCGESFTLADVSLAVTLHRLKFLGFARRNWGHGKRPNLESYYERVLKRKTFNKVLGHVNNILISAVLPTAFRVAKKRAPKVLGSTLVVGLLVGMGYFAFMLFRRRLGNMILSLRPRPNYF
B9: Serpina3n (protein, UniProt P09006 30-418)
chain: TLFHEDQDKGTQLDSLTLASINTDFAFSLYKKLALRNPDKNVVFSPLSISAALAVVSLGAKGNSMEEILEGLKFNLTETPETEIHRGFGHLLQRLSQPRDEIQISTGNALFIEKRLQVLAEFQEKAKALYQAEAFTADFQQSREAKKLINDYVSKQTQGKIQGLITNLAKKTSMVLVNYIYFKGKWKVPFDPRDTFQSEFYSGKRRPVKVPMMKLEDLTTPYVRDEELNCTVVELKYTGNASALFILPDQGKMQQVEASLQPETLRRWKDSLRPSMIDELYLPKFSISADYNLEDVLPELGIKEVFSTQADLSGITGDKDLMVSQVVHKAVLDVAETGTEAAAATGVKFVPMSAKLDPLIIAFDRPFLMIISDTETAIAPFLAKIFNPK
B10: Psmc2 (protein, UniProt Q63347 1-433)
chain: MPDYLGADQRKTKEDEKDDKPIRALDEGDIALLKTYGQSTYSRQIKQVEDDIQQLLKKINELTGIKESDTGLAPPALWDLAADKQTLQSEQPLQVARCTKIINADSEDPKYIINVKQFAKFVVDLSDQVAPTDIEEGMRVGVDRNKYQIHIPLPPKIDPTVTMMQVEEKPDVTYSDVGGCKEQIEKLREVVETPLLHPERFVNLGIEPPKGVLLFGPPGTGKTLCARAVANRTDACFIPVIGSELVQKYVGEGARMVRELFEMARTKKACLIFFDEIDAIGGARFDDGAGGDNEVQRTMLELINQLDGFDPRGNIKVLMATNRPDTLDPALMRPGRLDRKIEFSLPDLEGRTHIFKIHARSMSVERDIRFELLARLCPNSTGAEIRSVCTEAGMFAIRARRKIATEKDFLEAVNKVIKSYAKFSATPRYMTYN
B11: Pgam2 (protein, UniProt P16290 1-253)
chain: MATHRLVMVRHGESSWNQENRFCGWFDAELSEKGAEEAKRGATAIKDAKIEFDICYTSVLKRAIRTLWTILDVTDQMWVPVVRTWRLNERHYGGLTGLNKAETAAKHGEEQVKIWRRSFDTPPPPMDEKHNYYASISKDRRYAGLKPEELPTCESLKDTIARALPFWNEEIAPKIKAGKRVLIAAHGNSLRGIVKHLEGMSDQAIMELNLPTGIPIVYELNQELKPTKPMRFLGDEETVRKAMEAVAAQGKAK

No constants are given. Whether binding was seen depends on the method and setting. Binding seen in cells or lysates may run through a third protein. Here binding means that the protein was enriched with, or labelled near, the bait; the list need not be complete.

This assay concerns the target TAP-Kv4.2 (human) (UniProt Q9NZV8). The assay is described as follows: affinity purification with mass spectrometry; TAP-Kv4.2 expressed by lentivirus in rat hippocampal neurons, harvested at DIV14; weak lysis buffer of the kit (0.1% NP-40); streptavidin resin, then calmodulin resin; gel cut into high and low molecular weight fragments; no MS of the control sample.
Regarding B1, the binding result is given as “binds”.
For B2 the value was “binds”.
Take B3: the binding entry is given as “binds”.
For the molecule B4, the binding result is “binds”.
As for B5, the binding result is “binds”.
For B6 the value was “binds”; for B7, “binds”; for B8, “binds”.
Turning to B9, the binding entry is reported as “binds”.
In the case of B10, the binding entry is recorded as “binds”.
For the molecule B11, the binding entry was “binds”.
